Experimental data from PMC4559962.

Amino acid sequences for entries named in this document (tags omitted).
UniProt P25694: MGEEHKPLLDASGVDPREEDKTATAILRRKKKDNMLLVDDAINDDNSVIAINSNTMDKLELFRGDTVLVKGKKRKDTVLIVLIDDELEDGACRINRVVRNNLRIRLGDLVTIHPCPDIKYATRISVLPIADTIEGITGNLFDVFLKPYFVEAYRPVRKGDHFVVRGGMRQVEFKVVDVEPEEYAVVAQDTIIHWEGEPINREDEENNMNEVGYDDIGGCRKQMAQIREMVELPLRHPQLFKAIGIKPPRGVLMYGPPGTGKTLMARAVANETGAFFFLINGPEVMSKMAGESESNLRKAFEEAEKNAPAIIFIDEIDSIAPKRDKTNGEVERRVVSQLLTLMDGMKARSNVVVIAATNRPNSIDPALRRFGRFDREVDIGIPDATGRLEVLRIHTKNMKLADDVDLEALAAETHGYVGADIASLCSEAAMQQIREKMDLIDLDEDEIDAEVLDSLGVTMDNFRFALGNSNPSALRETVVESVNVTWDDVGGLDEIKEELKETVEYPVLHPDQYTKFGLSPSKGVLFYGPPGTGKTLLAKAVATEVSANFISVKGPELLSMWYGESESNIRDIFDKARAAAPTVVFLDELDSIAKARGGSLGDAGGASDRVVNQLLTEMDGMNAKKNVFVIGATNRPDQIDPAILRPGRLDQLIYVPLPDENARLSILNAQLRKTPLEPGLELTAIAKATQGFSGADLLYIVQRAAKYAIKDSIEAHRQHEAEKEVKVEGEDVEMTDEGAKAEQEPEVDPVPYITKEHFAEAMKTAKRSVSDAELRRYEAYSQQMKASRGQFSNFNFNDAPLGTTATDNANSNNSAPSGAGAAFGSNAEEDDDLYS

Target: T1, Wss1-Myc13 (chromosomally tagged) (S. cerevisiae) (UniProt P38838)
T1 sequence: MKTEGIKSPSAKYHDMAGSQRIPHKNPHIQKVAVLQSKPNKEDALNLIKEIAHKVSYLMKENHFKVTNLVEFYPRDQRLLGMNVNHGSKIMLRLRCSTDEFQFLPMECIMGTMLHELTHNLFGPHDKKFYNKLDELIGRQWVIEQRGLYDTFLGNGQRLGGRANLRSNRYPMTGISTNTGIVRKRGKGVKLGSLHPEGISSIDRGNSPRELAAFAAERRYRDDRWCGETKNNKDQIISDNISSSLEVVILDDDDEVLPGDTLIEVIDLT
Assay: affinity purification with mass spectrometry; Wss1-Myc13 from the endogenous locus; lysate on anti-c-Myc agarose, 1 hr at 4°C; parental strain as control; LC-MS/MS

binding: binds
Substance: Cdc48 (endogenous) (from UniProt P25694 1-835) (enzyme)

Results are given in words; binding and its absence hold for the method and conditions named. Binding seen in cells or lysates may run through a third protein. Here binding means that the protein was enriched with, or labelled near, the bait; the list need not be complete. Where a sequence is shown, tags or fusion partners need not be part of it.
